Data as given in the supplement of paper PMC11451515.

Assays:
Conditions in all cases: 48 h
SEM cells [1] = test: AUC of viability dose-response curve (% viability x log10 dose units); higher = less sensitive
Summary of the method: (§1)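 Leukemia cells adapted to each medium were seeded in 1536-well plates (500 or 1000 cells/well) and given library compounds in DMSO for 48 h at 37°C. The 11 threefold doses spanned 47 μM to 0.79 nM, and CellTiter-Glo One luminescence was normalised per plate to DMSO and cell-free wells before four-parameter log-logistic fitting on log10 dose. Area under the curve was integrated with the trapezoidal rule, scaling curves above full viability and removing curves that failed quality control.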

P12-Ichikawa [2] = test: as above
Summary of the method: as §1

NOMO1 [3] = test: as above
Summary of the method: as §1

SEM cells [4] = test: cell viability relative to DMSO control; higher = less cytotoxic
Summary of the method: (§2)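 NOMO1 or SEM cells were plated at 500 cells/well and P12-Ichikawa cells at 1000 cells/well in 1536-well plates (5 μl), after each leukemia line had been adapted for at least four passages in each medium. Pin dosing delivered library compounds in DMSO at 11 threefold concentrations, 47 μM to 0.79 nM. CellTiter-Glo One luminescence was read after 48 h at 37°C. Viability is reported as a per-plate percentage of DMSO wells, with cell-free wells as background.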

P12-Ichikawa [5] = test: as above
Summary of the method: as §2

NOMO1 [6] = test: as above
Summary of the method: as §2

Cc1cnc(C(=O)NCCc2ccc([S+](=O)([O-])NC(=O)NC3CCCCC3)cc2)cn1
AUC of viability dose-response curve
Conditions | NOMO1 [3] | P12-Ichikawa [2] | SEM cells [1]
HPLM + 10% dialyzed FBS | 455 | 457 | 451
RPMI 5 mM glucose + 10% FBS | 434 | 464 | 435
RPMI 5 mM glucose + 10% dialyzed FBS | 464 | 466 | 422

cell viability [%]
Conditions | NOMO1 [6] | P12-Ichikawa [5] | SEM cells [4]
HPLM + 10% dialyzed FBS, 0.000781 µM | 92.5 | 99.6 | 91.2
HPLM + 10% dialyzed FBS, 0.00234 µM | 104 | 111 | 50.5
HPLM + 10% dialyzed FBS, 0.00702 µM | 106 | 107 | 94.2
HPLM + 10% dialyzed FBS, 0.0211 µM | 117 | 101 | 101
HPLM + 10% dialyzed FBS, 0.0632 µM | 121 | 109 | 98.6
HPLM + 10% dialyzed FBS, 0.19 µM | 112 | 103 | 106
HPLM + 10% dialyzed FBS, 0.569 µM | 119 | 105 | 102
HPLM + 10% dialyzed FBS, 1.71 µM | 97.1 | 100 | 101
HPLM + 10% dialyzed FBS, 5.12 µM | 119 | 107 | 112
HPLM + 10% dialyzed FBS, 15.4 µM | 84.3 | 85 | 113
HPLM + 10% dialyzed FBS, 46.1 µM | 59.4 | 56.3 | 88.8
RPMI 5 mM glucose + 10% FBS, 0.000781 µM | 86.5 | 103 | 89.8
RPMI 5 mM glucose + 10% FBS, 0.00234 µM | 95.1 | 102 | 51.2
RPMI 5 mM glucose + 10% FBS, 0.00702 µM | 87.5 | 101 | 101
RPMI 5 mM glucose + 10% FBS, 0.0211 µM | 90.5 | 104 | 92.6
RPMI 5 mM glucose + 10% FBS, 0.0632 µM | 92.9 | 103 | 91
RPMI 5 mM glucose + 10% FBS, 0.19 µM | 86.3 | 108 | 94.7
RPMI 5 mM glucose + 10% FBS, 0.569 µM | 94.8 | 105 | 98.9
RPMI 5 mM glucose + 10% FBS, 1.71 µM | 96.5 | 119 | 101
RPMI 5 mM glucose + 10% FBS, 5.12 µM | 96.6 | 127 | 99.4
RPMI 5 mM glucose + 10% FBS, 15.4 µM | 87.6 | 96 | 97.1
RPMI 5 mM glucose + 10% FBS, 46.1 µM | 80.6 | 73.2 | 78.8
RPMI 5 mM glucose + 10% dialyzed FBS, 0.000781 µM | 96.6 | 90.9 | 97.7
RPMI 5 mM glucose + 10% dialyzed FBS, 0.00234 µM | 96.6 | 97.8 | 46.2
RPMI 5 mM glucose + 10% dialyzed FBS, 0.00702 µM | 103 | 100 | 90.3
RPMI 5 mM glucose + 10% dialyzed FBS, 0.0211 µM | 98.3 | 96 | 100
RPMI 5 mM glucose + 10% dialyzed FBS, 0.0632 µM | 110 | 105 | 91.3
RPMI 5 mM glucose + 10% dialyzed FBS, 0.19 µM | 107 | 105 | 96.3
RPMI 5 mM glucose + 10% dialyzed FBS, 0.569 µM | 107 | 101 | 89.3
RPMI 5 mM glucose + 10% dialyzed FBS, 1.71 µM | 100 | 110 | 97.5
RPMI 5 mM glucose + 10% dialyzed FBS, 5.12 µM | 101 | 105 | 102
RPMI 5 mM glucose + 10% dialyzed FBS, 15.4 µM | 88.9 | 93.8 | 87.4
RPMI 5 mM glucose + 10% dialyzed FBS, 46.1 µM | 77.2 | 68 | 67.7
